Test results: PMC2873402, “Discovery of High-Affinity Protein Binding Ligands – Backwards” (PLoS ONE, 2010)
No constants are given. Whether binding was seen depends on the method and setting. Some entries that bind do so weakly or less than the wild type. Values belong to the binder of their own block, whether it stands above or below them.

Chains of the proteins cited; added tags and fusions are not shown.
UniProt P31749: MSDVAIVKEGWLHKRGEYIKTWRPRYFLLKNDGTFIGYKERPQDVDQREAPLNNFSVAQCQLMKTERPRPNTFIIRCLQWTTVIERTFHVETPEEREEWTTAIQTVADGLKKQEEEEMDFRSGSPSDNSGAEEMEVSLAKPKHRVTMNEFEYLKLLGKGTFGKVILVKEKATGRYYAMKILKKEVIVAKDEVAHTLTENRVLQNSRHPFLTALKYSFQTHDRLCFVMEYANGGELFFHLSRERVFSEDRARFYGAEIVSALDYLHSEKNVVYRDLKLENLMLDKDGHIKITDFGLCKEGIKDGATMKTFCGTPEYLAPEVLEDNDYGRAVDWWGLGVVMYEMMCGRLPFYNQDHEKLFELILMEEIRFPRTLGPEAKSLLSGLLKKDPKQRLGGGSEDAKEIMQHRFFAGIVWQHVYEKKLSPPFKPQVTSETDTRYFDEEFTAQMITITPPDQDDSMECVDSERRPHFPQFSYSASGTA

Columns and labels:
AKT1 = AKT1 (Homo sapiens, UniProt P31749); test: SPR; individual peptides over immobilized AKT1 at high immobilization levels (15,584 RU, peptide 1 at 1.88, 0.94 and 0.47 µM; 19,912 RU, peptide 2 at 20, 10 and 1 µM); both purified
[1] = biological target: recombinant AKT1 (produced in house) (UniProt P31749); test: cross-linking; 10 µM peptide with 2.5 µM AKT1 in PBS for one hour, then 100 µM BS^3-d0/BS^3-d4 (1:1) for one hour; trypsin digest; MALDI-TOF-MS; both purified

binding (AKT1): binds weakly | binding [1]: binds
B1: peptide 1 (peptide)
peptide: AHKVVPQRQIRHAYNRYGSG

binding (AKT1): binds weakly | binding [1]: binds
B2: peptide 2 (peptide)
peptide: FRGWAHIFFGPHVIYRGGSG
